Measurements from patent publication US20040106557A1.
These are yes or no findings as the source states them, for the method shown. Some entries that bind do so weakly or less than the wild type.

By UniProt entry, the sequences of proteins in these tests, tags left out. Residues count along the entry.
UniProt P07288, residues 25-261: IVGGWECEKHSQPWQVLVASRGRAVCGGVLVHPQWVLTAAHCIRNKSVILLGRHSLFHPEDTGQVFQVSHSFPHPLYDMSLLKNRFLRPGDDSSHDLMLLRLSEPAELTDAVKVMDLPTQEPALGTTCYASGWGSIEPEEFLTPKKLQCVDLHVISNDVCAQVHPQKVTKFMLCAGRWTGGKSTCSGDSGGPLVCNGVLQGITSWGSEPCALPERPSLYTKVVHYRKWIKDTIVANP

Molecular target: Prostate specific antigen (PSA), purified from human seminal fluid (human) (UniProt P07288)
Experiment: competition IFMA, PSA captured by anti-PSA MAb, competitor the corresponding GST-peptide

## CVFTSDYAFC (disulphide bridge Cys1-Cys10) [chemically synthesized peptide A-1 (A-1-1, A-1 parent)]
  binding: binds
